Assay results reported in article PMC3744471, “Mitochondria Are the Target Organelle of Differentiation-Inducing Factor-3, an Anti-Tumor Agent Isolated from Dictyostelium Discoideum” (PLoS ONE, 2013).

System: HeLa cells
Test: Fluorescence microscopy: membrane permeability and cellular localization
Assay type: cell-based, human
Settings: 20 µM, 0.5 h
Protocol: HeLa cells were cultured for 1–2 days with 2 ml DMEM-FBS in 35-mm tissue culture dishes (Becton Dickinson), washed twice with PBS(–), and then fixed for 15–20 min at room temperature with 2 ml of 3.7% (v/v) formaldehyde in PBS(–). The cells were then washed twice with PBS(–) and used for staining with the fluorescent probes. Alternatively, the fixed cells were treated for 15–20 min with 2 ml of 0.1% (w/v) Triton X-100 in PBS(–), washed twice with PBS(–), and used for staining with the fluorescent probes. […]
For high magnification multi-color imaging, cells were incubated for the appropriate times with 2 ml of DMEM-FBS (HeLa and 3T3-L1) or MEM-α-FBS (LM8) containing various compounds in 35-mm plastic dishes (tissue culture treated µ-Dish; ibidi, Martinsried, Germany). The cells were washed twice with 2 ml of PBS(–), submerged in 2 ml of Hepes buffer (pH 7.4), and observed at room temperature with a Keyence BZ-9000 fluorescence microscope (Osaka, Japan) equipped with an oil immersion 100× lens (CFI Plan Apo VC100XH) and multi-filters that can distinguish four fluorescent probes simultaneously. […]

SMILES	Cellular staining / localization
CCCCCC(=O)c1c(O)cc(OCCCCNC(=O)CCC2=[N+]3C(=Cc4c(C)cc(C)n4[B-]3(F)F)C=C2)c(Cl)c1O [BODIPY-DIF-3]	localized mainly in mitochondria
CCCCNC(=O)CCC1=[N+]2C(=Cc3c(C)cc(C)n3[B-]2(F)F)C=C1 [Bu-BODIPY]	did not show any notable staining
